The text below walks through data of PMC9558416.

Protein sequences, listed by entry. Tags and fused reporters are not part of them.
UniProt P07355: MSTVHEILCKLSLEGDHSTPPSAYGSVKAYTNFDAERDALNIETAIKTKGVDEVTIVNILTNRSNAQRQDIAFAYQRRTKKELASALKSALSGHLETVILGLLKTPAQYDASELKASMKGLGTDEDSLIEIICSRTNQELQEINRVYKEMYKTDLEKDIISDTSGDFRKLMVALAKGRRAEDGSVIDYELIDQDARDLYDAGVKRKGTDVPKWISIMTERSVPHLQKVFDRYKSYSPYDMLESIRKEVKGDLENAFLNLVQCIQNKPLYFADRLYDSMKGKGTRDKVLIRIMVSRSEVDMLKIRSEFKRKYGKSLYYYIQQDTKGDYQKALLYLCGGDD

The target of this assay is T1, FLAG-RalA (UniProt P11233).
T1 sequence: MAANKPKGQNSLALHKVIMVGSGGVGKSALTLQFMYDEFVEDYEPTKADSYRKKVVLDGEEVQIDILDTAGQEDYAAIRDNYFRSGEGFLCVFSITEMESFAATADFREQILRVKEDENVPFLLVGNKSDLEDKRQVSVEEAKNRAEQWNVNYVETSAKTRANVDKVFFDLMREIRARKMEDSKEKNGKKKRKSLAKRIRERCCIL
Kind of assay: affinity purification with mass spectrometry; total cell protein incubated with the antibody for FLAG 12 h at 4 °C, protein A/G magnetic beads 1 h at room temperature; eluate to LC-MS/MS; proteins only identified in the FLAG-RalA group.

These are yes or no findings as the source states them, for the method shown. In cells and extracts the contact can be indirect. Here binding means that the protein was enriched with, or labelled near, the bait; the list need not be complete. Tags and fused reporters may be left off the sequences shown.

For “Annexin A2 (ANXA2), endogenous (from UniProt P07355 1-339)”, the binding result is “binds”.
